These are yes or no findings as the source states them, for the method shown. In cells and extracts the contact can be indirect. A result given as binding can be weak or reduced; the word gives no strength. Tags and fused reporters may be left off the sequences shown.

From publication PMC7359099 come the findings set out here.

The assay concerns the target T1, Dual specificity mitogen-activated protein kinase kinase 3, Flag-tagged (human) (UniProt P46734).
T1 sequence: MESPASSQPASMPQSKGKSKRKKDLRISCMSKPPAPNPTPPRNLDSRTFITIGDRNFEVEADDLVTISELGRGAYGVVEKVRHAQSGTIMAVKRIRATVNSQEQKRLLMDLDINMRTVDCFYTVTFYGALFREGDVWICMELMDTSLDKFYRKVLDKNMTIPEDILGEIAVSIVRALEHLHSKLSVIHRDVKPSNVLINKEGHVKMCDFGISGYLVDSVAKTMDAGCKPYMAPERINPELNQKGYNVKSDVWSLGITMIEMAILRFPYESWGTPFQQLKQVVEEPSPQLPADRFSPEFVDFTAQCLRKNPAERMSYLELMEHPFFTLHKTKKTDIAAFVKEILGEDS
The experiment in a line: co-IP; Lysates (IP lysis buffer) of HEK293T cells transfected with Flag-MKK3 or HA-MKK6; immunoprecipitation with anti-Flag or anti-HA at 4°C overnight; western blot for p38 and phospho-p38; cells with or without capsaicin (75 μM). Background: Immunoblotting shows a protein as a band on a membrane.

As for “Mitogen-Activated Protein Kinase P38 (human (endogenous in HEK293T)) (enzyme)”, the binding result is recorded as “binds”.
